{"sequences": {"note": "Chains of the proteins cited; added tags and fusions are not shown. Residues count along the entry.", "UniProt Q9UGN5, 77-220": "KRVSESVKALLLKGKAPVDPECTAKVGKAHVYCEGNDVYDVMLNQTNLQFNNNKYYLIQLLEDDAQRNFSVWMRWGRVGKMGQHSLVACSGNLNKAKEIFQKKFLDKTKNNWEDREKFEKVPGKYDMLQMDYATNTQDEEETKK"}, "source": "paper PMC12209172", "about": "“Poly(ADP-ribose)polymerase 2 is zinc-dependent enzyme and nucleosome reorganizer” (Cellular and Molecular Life Sciences: CMLS, 2025)", "molecular_target": "T1, WGR domain of PARP2 (Homo sapiens, UniProt Q9UGN5)", "T1 construct": "WGR domain of PARP2 (residues 77–220) into pET-15b-TEV expression vector; 6xHis (pET-15b-TEV) (N, cleaved yes); made in house; host or cells: Escherichia coli Rosetta2 (DE3) pLysS", "test": "Tryptophan fluorescence spectroscopy of the WGR domain titrated with divalent cations (one site binding fit)", "settings": "listed as Zn", "protocol": "Fluorescence spectra of Trp residues were measured in the 300–450 nm spectral range at the 270 nm excitation wavelengths using the Cary Eclipse spectrofluorometer (Varian/Agilent, USA).\nFluorescence of WGR domain was measured at 0.5 or 5 µM in a buffer containing 10 mM HEPES (pH 8.0), 150 mM NaCl and 0.73 or 7.3 µM EDTA, respectively. Solutions were complemented with ZnCl2 (0.2–308 µM) or MgCl2 (15–5000 µM), or CaCl2 (8–5000 µM) dissolved in a buffer containing 10 mM HEPES (pH 8.0), 150 mM NaCl. Intensity of the measured spectra was corrected for the concomitant dilution of the WGR domain. Integral intensities (Ifl.) of fluorescence spectra were averaged over three independent measurements (mean ± SEM) and used to plot the corresponding Ifl. vs. ion concentration graphs. Data were fitted with the one site binding equation:2 [drawing 2]\nWhere C is the concentration of divalent cations, Kd is a dissociation constant of the complex, Im and Ifl0 are maximal and initial values of Ifl., respectively.", "note": "“And” between values parts separate entries of the source, which are not always exact repeats. Equal values may be shown once. The source gives many values for each of these; only a part stands here."}
{"smiles": "[Cl-].[Cl-].[Zn+2]", "note": "[Zn2+, ZnCl2]", "values": [{"measurement": "fluorescence intensity (Fig 3d)", "setting": "wavelength 344.060, 5.9 uM Zn", "value": "72.459 and 82.192 and 100.090 and 79.146"}, {"measurement": "fluorescence intensity (Fig 3d)", "setting": "wavelength 344.060, 11.6 uM Zn", "value": "137.473 and 118.285 and 119.381 and 125.424"}, {"measurement": "fluorescence intensity (Fig 3d)", "setting": "wavelength 344.060, 17.2 uM", "value": "144.028 and 132.015 and 131.570 and 130.788"}, {"measurement": "fluorescence intensity (Fig 3d)", "setting": "wavelength 344.060, 22.1 uM", "value": "144.718 and 132.736 and 132.728 and 133.653"}, {"measurement": "fluorescence intensity (Fig 3d)", "setting": "wavelength 344.060, 303 uM + 7 mM EDTA", "value": "46.920 and 60.763 and 47.376 and 57.503"}, {"measurement": "fluorescence intensity (Fig 3d)", "setting": "wavelength 344.060, 308 uM", "value": "145.265 and 136.149 and 137.211 and 134.542"}, {"measurement": "fluorescence intensity (Fig 3d)", "setting": "wavelength 345.000, 5.9 uM Zn", "value": "72.128 and 82.137 and 99.714 and 78.760"}, {"measurement": "fluorescence intensity (Fig 3d)", "setting": "wavelength 345.000, 11.6 uM Zn", "value": "136.143 and 118.777 and 118.942 and 125.157"}, {"measurement": "fluorescence intensity (Fig 3d)", "setting": "wavelength 345.000, 17.2 uM", "value": "143.645 and 133.321 and 131.572 and 130.710"}, {"measurement": "fluorescence intensity (Fig 3d)", "setting": "wavelength 345.000, 22.1 uM", "value": "145.000 and 131.998 and 131.843 and 133.775"}, {"measurement": "fluorescence intensity (Fig 3d)", "setting": "wavelength 345.000, 303 uM + 7 mM EDTA", "value": "47.458 and 59.823 and 48.062 and 56.893"}, {"measurement": "fluorescence intensity (Fig 3d)", "setting": "wavelength 345.000, 308 uM", "value": "144.708 and 135.717 and 137.517 and 134.634"}, {"measurement": "fluorescence intensity (Fig 3d)", "setting": "wavelength 345.930, 5.9 uM Zn", "value": "71.776 and 81.061 and 99.602 and 78.398"}, {"measurement": "fluorescence intensity (Fig 3d)", "setting": "wavelength 345.930, 11.6 uM Zn", "value": "136.970 and 118.112 and 117.682 and 126.024"}, {"measurement": "fluorescence intensity (Fig 3d)", "setting": "wavelength 345.930, 17.2 uM", "value": "141.957 and 131.827 and 133.131 and 130.466"}, {"measurement": "fluorescence intensity (Fig 3d)", "setting": "wavelength 345.930, 22.1 uM", "value": "144.023 and 131.491 and 131.306 and 133.317"}, {"measurement": "fluorescence intensity (Fig 3d)", "setting": "wavelength 345.930, 303 uM + 7 mM EDTA", "value": "46.538 and 59.478 and 47.757 and 57.073"}, {"measurement": "fluorescence intensity (Fig 3d)", "setting": "wavelength 345.930, 308 uM", "value": "146.221 and 136.206 and 135.004 and 135.504"}, {"measurement": "fluorescence intensity (Fig 3d)", "setting": "wavelength 347.030, 5.9 uM Zn", "value": "71.072 and 82.334 and 98.859 and 79.154"}, {"measurement": "fluorescence intensity (Fig 3d)", "setting": "wavelength 347.030, 11.6 uM Zn", "value": "136.428 and 116.259 and 118.136 and 125.709"}, {"measurement": "fluorescence intensity (Fig 3d)", "setting": "wavelength 347.030, 17.2 uM", "value": "143.257 and 130.522 and 131.583 and 130.190"}, {"measurement": "fluorescence intensity (Fig 3d)", "setting": "wavelength 347.030, 22.1 uM", "value": "143.355 and 132.787 and 131.250 and 133.300"}, {"measurement": "fluorescence intensity (Fig 3d)", "setting": "wavelength 347.030, 303 uM + 7 mM EDTA", "value": "46.563 and 59.464 and 46.878 and 57.408"}, {"measurement": "fluorescence intensity (Fig 3d)", "setting": "wavelength 347.030, 308 uM", "value": "143.593 and 135.007 and 136.120 and 131.786"}, {"measurement": "fluorescence intensity (Fig 3d)", "setting": "wavelength 347.960, 5.9 uM Zn", "value": "71.769 and 81.510 and 99.591 and 78.171"}, {"measurement": "fluorescence intensity (Fig 3d)", "setting": "wavelength 347.960, 11.6 uM Zn", "value": "135.240 and 116.880 and 117.708 and 124.016"}, {"measurement": "fluorescence intensity (Fig 3d)", "setting": "wavelength 347.960, 17.2 uM", "value": "142.807 and 131.611 and 130.941 and 130.389"}, {"measurement": "fluorescence intensity (Fig 3d)", "setting": "wavelength 347.960, 22.1 uM", "value": "143.457 and 132.267 and 131.085 and 131.433"}, {"measurement": "fluorescence intensity (Fig 3d)", "setting": "wavelength 347.960, 303 uM + 7 mM EDTA", "value": "45.283 and 58.791 and 46.798 and 57.210"}, {"measurement": "fluorescence intensity (Fig 3d)", "setting": "wavelength 347.960, 308 uM", "value": "143.843 and 137.208 and 136.441 and 131.749"}, {"measurement": "fluorescence intensity (Fig 3d)", "setting": "wavelength 349.060, 5.9 uM Zn", "value": "70.238 and 80.987 and 97.751 and 77.682"}, {"measurement": "fluorescence intensity (Fig 3d)", "setting": "wavelength 349.060, 11.6 uM Zn", "value": "133.289 and 115.415 and 117.009 and 123.858"}, {"measurement": "fluorescence intensity (Fig 3d)", "setting": "wavelength 349.060, 17.2 uM", "value": "141.765 and 129.352 and 128.670 and 129.296"}, {"measurement": "fluorescence intensity (Fig 3d)", "setting": "wavelength 349.060, 22.1 uM", "value": "143.406 and 129.810 and 130.322 and 131.038"}, {"measurement": "fluorescence intensity (Fig 3d)", "setting": "wavelength 349.060, 303 uM + 7 mM EDTA", "value": "45.444 and 58.323 and 46.643 and 56.691"}, {"measurement": "fluorescence intensity (Fig 3d)", "setting": "wavelength 349.060, 308 uM", "value": "142.247 and 135.083 and 133.810 and 131.017"}, {"measurement": "fluorescence intensity (Fig 3d)", "setting": "wavelength 350.000, 5.9 uM Zn", "value": "70.361 and 79.928 and 96.969 and 77.347"}, {"measurement": "fluorescence intensity (Fig 3d)", "setting": "wavelength 350.000, 11.6 uM Zn", "value": "133.490 and 115.112 and 115.204 and 122.552"}, {"measurement": "fluorescence intensity (Fig 3d)", "setting": "wavelength 350.000, 17.2 uM", "value": "139.096 and 129.329 and 128.852 and 128.076"}, {"measurement": "fluorescence intensity (Fig 3d)", "setting": "wavelength 350.000, 22.1 uM", "value": "141.183 and 128.688 and 130.269 and 130.830"}, {"measurement": "fluorescence intensity (Fig 3d)", "setting": "wavelength 350.000, 303 uM + 7 mM EDTA", "value": "46.247 and 57.135 and 46.656 and 55.433"}, {"measurement": "fluorescence intensity (Fig 3d)", "setting": "wavelength 350.000, 308 uM", "value": "141.144 and 132.558 and 133.688 and 130.339"}, {"measurement": "fluorescence intensity (Fig 3d)", "setting": "wavelength 351.070, 5.9 uM Zn", "value": "69.431 and 78.906 and 96.271 and 76.869"}, {"measurement": "fluorescence intensity (Fig 3d)", "setting": "wavelength 351.070, 11.6 uM Zn", "value": "132.922 and 115.046 and 115.123 and 121.097"}, {"measurement": "fluorescence intensity (Fig 3d)", "setting": "wavelength 351.070, 17.2 uM", "value": "138.288 and 127.252 and 128.238 and 128.122"}, {"measurement": "fluorescence intensity (Fig 3d)", "setting": "wavelength 351.070, 22.1 uM", "value": "141.654 and 129.837 and 129.072 and 130.149"}, {"measurement": "fluorescence intensity (Fig 3d)", "setting": "wavelength 351.070, 303 uM + 7 mM EDTA", "value": "44.467 and 57.328 and 46.098 and 55.451"}, {"measurement": "fluorescence intensity (Fig 3d)", "setting": "wavelength 351.070, 308 uM", "value": "140.017 and 132.105 and 134.422 and 129.176"}, {"measurement": "fluorescence intensity (Fig 3d)", "setting": "wavelength 352.000, 5.9 uM Zn", "value": "68.120 and 77.981 and 94.313 and 75.803"}, {"measurement": "fluorescence intensity (Fig 3d)", "setting": "wavelength 352.000, 11.6 uM Zn", "value": "130.471 and 114.079 and 114.609 and 120.211"}, {"measurement": "fluorescence intensity (Fig 3d)", "setting": "wavelength 352.000, 17.2 uM", "value": "137.149 and 127.411 and 127.203 and 126.379"}, {"measurement": "fluorescence intensity (Fig 3d)", "setting": "wavelength 352.000, 22.1 uM", "value": "138.638 and 128.177 and 127.675 and 129.182"}, {"measurement": "fluorescence intensity (Fig 3d)", "setting": "wavelength 352.000, 303 uM + 7 mM EDTA", "value": "43.888 and 56.825 and 45.420 and 54.752"}, {"measurement": "fluorescence intensity (Fig 3d)", "setting": "wavelength 352.000, 308 uM", "value": "138.087 and 131.742 and 132.330 and 127.940"}, {"measurement": "fluorescence intensity (Fig 3d)", "setting": "wavelength 353.070, 5.9 uM Zn", "value": "68.949 and 77.078 and 94.185 and 75.610"}, {"measurement": "fluorescence intensity (Fig 3d)", "setting": "wavelength 353.070, 11.6 uM Zn", "value": "129.066 and 111.840 and 112.851 and 119.597"}, {"measurement": "fluorescence intensity (Fig 3d)", "setting": "wavelength 353.070, 17.2 uM", "value": "136.752 and 125.751 and 126.785 and 126.237"}, {"measurement": "fluorescence intensity (Fig 3d)", "setting": "wavelength 353.070, 22.1 uM", "value": "137.626 and 125.497 and 127.123 and 126.659"}, {"measurement": "fluorescence intensity (Fig 3d)", "setting": "wavelength 353.070, 303 uM + 7 mM EDTA", "value": "44.416 and 56.590 and 44.950 and 53.826"}, {"measurement": "fluorescence intensity (Fig 3d)", "setting": "wavelength 353.070, 308 uM", "value": "136.115 and 129.581 and 128.718 and 126.753"}]}
